{"source": "PubChem BioAssay AID686943 (Drosophila RNAi Screening Center, 2013)", "purpose": "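Fly genes whose loss alters ERK activation after insulin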 (primary screen)", "cells": "Drosophila S2R+ haemocyte-like cells expressing YFP-tagged ERK (Rolled)", "reagents": "long dsRNA against Drosophila genes", "challenge": "insulin stimulation versus unstimulated cells; dose and duration not given", "measured": "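Per-plate z-scores of phospho-ERK immunostaining normalised to YFP-tagged ERK, measured with and without insulin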", "direction": "replicate 1, z-score of dpERK with insulin and replicate 2, z-score of dpERK with insulin: higher = more active ERK per ERK-YFP after insulin", "note": "In all, the deposit lists about 23,000 reagents; below is an unselected part of those that have a named target and a result. 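Extra replicates exist only for a retested subset of genes; insulin dose and duration not given; both raised and lowered dpERK matter.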 Not all columns of the deposit are shown. No sequences are given here. Not stated in the record: the amount of reagent, the time to read-out."}
{"predicted target":"Nlp (Nucleoplasmin)","dsRNA":"DRSC16759","replicate 1, z-score of dpERK with insulin":-0.06,"replicate 2, z-score of dpERK with insulin":0.24}
{"predicted target":"Tina-1 (Troponin C-akin-1)","dsRNA":"DRSC04317","replicate 1, z-score of dpERK with insulin":-0.47,"replicate 2, z-score of dpERK with insulin":-0.34}
{"predicted target":"CG6380","dsRNA":"DRSC02950","replicate 1, z-score of dpERK with insulin":-0.58,"replicate 2, z-score of dpERK with insulin":-0.05}
{"predicted target":"Slc25A46b","dsRNA":"DRSC02888","replicate 1, z-score of dpERK with insulin":0.2,"replicate 2, z-score of dpERK with insulin":0.33}
{"predicted target":"betaNACtes2 (Nascent-associated complex beta-subunit-like, testis 2)","dsRNA":"DRSC19792","replicate 1, z-score of dpERK with insulin":0.1,"replicate 2, z-score of dpERK with insulin":-1.64}
{"predicted target":"b6","dsRNA":"DRSC18740","replicate 1, z-score of dpERK with insulin":-0.3,"replicate 2, z-score of dpERK with insulin":0.84}
{"predicted target":"Med (Medea)","dsRNA":"DRSC16737","replicate 1, z-score of dpERK with insulin":-2.7,"replicate 2, z-score of dpERK with insulin":-2.02}
{"predicted target":"Alp8 (Alkaline phosphatase 8)","dsRNA":"DRSC04353","replicate 1, z-score of dpERK with insulin":-0.01,"replicate 2, z-score of dpERK with insulin":-0.42}
{"predicted target":"CG4822","dsRNA":"DRSC00669","replicate 1, z-score of dpERK with insulin":-0.42,"replicate 2, z-score of dpERK with insulin":0.68}
{"predicted target":"CG8476","dsRNA":"DRSC16426","replicate 1, z-score of dpERK with insulin":-0.11,"replicate 2, z-score of dpERK with insulin":0.31}
{"predicted target":"DZIP1","dsRNA":"DRSC14620","replicate 1, z-score of dpERK with insulin":-0.07,"replicate 2, z-score of dpERK with insulin":-0.15}
{"predicted target":"CG13102","dsRNA":"DRSC02202","replicate 1, z-score of dpERK with insulin":1.33,"replicate 2, z-score of dpERK with insulin":1.05}
{"predicted target":"ldbr (lariat debranching enzyme)","dsRNA":"DRSC10933","replicate 1, z-score of dpERK with insulin":0.17,"replicate 2, z-score of dpERK with insulin":-0.21}
{"predicted target":"Xxylt (Xyloside xylosyltransferase)","dsRNA":"DRSC04107","replicate 1, z-score of dpERK with insulin":0.19,"replicate 2, z-score of dpERK with insulin":0.22}
{"predicted target":"CG15719","dsRNA":"DRSC19685","replicate 1, z-score of dpERK with insulin":0.1,"replicate 2, z-score of dpERK with insulin":-0.15}
{"predicted target":"Paip2 (polyA-binding protein interacting protein 2)","dsRNA":"DRSC14504","replicate 1, z-score of dpERK with insulin":-0.35,"replicate 2, z-score of dpERK with insulin":-0.47}
{"predicted target":"Sec10 (Secretory 10)","dsRNA":"DRSC17053","replicate 1, z-score of dpERK with insulin":0.28,"replicate 2, z-score of dpERK with insulin":0.09}
{"predicted target":"CecC (Cecropin C)","dsRNA":"DRSC16606","replicate 1, z-score of dpERK with insulin":0.47,"replicate 2, z-score of dpERK with insulin":-0.38}
{"predicted target":"BomT2 (Bomanin Tailed 2)","dsRNA":"DRSC06631","replicate 1, z-score of dpERK with insulin":0.96,"replicate 2, z-score of dpERK with insulin":0.03}
{"predicted target":"CG17187","dsRNA":"DRSC15181","replicate 1, z-score of dpERK with insulin":0.3,"replicate 2, z-score of dpERK with insulin":0.18}
{"predicted target":"Dscam4 (Down syndrome cell adhesion molecule 4)","dsRNA":"DRSC08911","replicate 1, z-score of dpERK with insulin":-1.16,"replicate 2, z-score of dpERK with insulin":-0.18}
{"predicted target":"Dscam4 (Down syndrome cell adhesion molecule 4)","dsRNA":"DRSC08913","replicate 1, z-score of dpERK with insulin":0.94,"replicate 2, z-score of dpERK with insulin":-0.02}
{"predicted target":"Dscam4 (Down syndrome cell adhesion molecule 4)","dsRNA":"DRSC10031","replicate 1, z-score of dpERK with insulin":-0.91,"replicate 2, z-score of dpERK with insulin":-1.99}
{"predicted target":"Dscam4 (Down syndrome cell adhesion molecule 4)","dsRNA":"DRSC10329","replicate 1, z-score of dpERK with insulin":-1.24,"replicate 2, z-score of dpERK with insulin":-1.25}
{"predicted target":"Dscam4 (Down syndrome cell adhesion molecule 4)","dsRNA":"DRSC10765","replicate 1, z-score of dpERK with insulin":0.75,"replicate 2, z-score of dpERK with insulin":0.66}
{"predicted target":"CG3581","dsRNA":"DRSC15499","replicate 1, z-score of dpERK with insulin":0.45,"replicate 2, z-score of dpERK with insulin":0.02}
{"predicted target":"CG30325","dsRNA":"DRSC05685","replicate 1, z-score of dpERK with insulin":1.09,"replicate 2, z-score of dpERK with insulin":1.39}
{"predicted target":"arr (arrow)","dsRNA":"DRSC07451","replicate 1, z-score of dpERK with insulin":0.5,"replicate 2, z-score of dpERK with insulin":0.17}
{"predicted target":"Pcf11 (Pcf11 cleavage and polyadenylation factor subunit)","dsRNA":"DRSC05983","replicate 1, z-score of dpERK with insulin":0.38,"replicate 2, z-score of dpERK with insulin":-1.71}
{"predicted target":"CG12289","dsRNA":"DRSC09874","replicate 1, z-score of dpERK with insulin":-0.08,"replicate 2, z-score of dpERK with insulin":0.31}
{"predicted target":"CG9467","dsRNA":"DRSC16498","replicate 1, z-score of dpERK with insulin":-0.15,"replicate 2, z-score of dpERK with insulin":-0.01}

Ordered by “replicate 1, z-score of dpERK with insulin” (low to high): some entries from above
{"predicted target":"Med (Medea)","dsRNA":"DRSC16737","replicate 1, z-score of dpERK with insulin":-2.7,"replicate 2, z-score of dpERK with insulin":-2.02}
{"predicted target":"CG4822","dsRNA":"DRSC00669","replicate 1, z-score of dpERK with insulin":-0.42,"replicate 2, z-score of dpERK with insulin":0.68}
{"predicted target":"CG8476","dsRNA":"DRSC16426","replicate 1, z-score of dpERK with insulin":-0.11,"replicate 2, z-score of dpERK with insulin":0.31}
{"predicted target":"DZIP1","dsRNA":"DRSC14620","replicate 1, z-score of dpERK with insulin":-0.07,"replicate 2, z-score of dpERK with insulin":-0.15}
{"predicted target":"Alp8 (Alkaline phosphatase 8)","dsRNA":"DRSC04353","replicate 1, z-score of dpERK with insulin":-0.01,"replicate 2, z-score of dpERK with insulin":-0.42}
